What all share (assay): log2 fold change, soluble protein after heating vs DMSO (PISA); higher = thermal stabilisation; K562 lysate, 10 uM; active = over 0.2 and 3.5 SD of the protein, either way, in both replicates (recomputed)
Compound in assay [1]: NCC(=O)Nc1ccc(-n2nc(C(F)(F)F)cc2-c2ccc3c(ccc4ccccc43)c2)cc1
A digest of the protocol:
(§1)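 To prepare the extract, K562 pellets were dounce-homogenised in PBS pH 7.4 with 1 mM MgCl2, giving crude material at 1 mg/mL protein. This was treated with 10 μM compound for 30 min, then heated in aliquots for 3 min over 48°C-58°C before pooling and addition of NP-40 to 0.5% at 4°C. Centrifugation at 21,000xg for 90 min left soluble protein in the supernatant, which TMTpro 16plex LC-MS/MS quantified with equalised channel sums. Results are log-two fold changes in thermal stability compared with solvent controls, from duplicates.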

Protein sequences, listed by entry. Tags and fused reporters are not part of them. Lines headed by an entry give the natural chain unless they say otherwise; changes in a name come on top.
UniProt P17655: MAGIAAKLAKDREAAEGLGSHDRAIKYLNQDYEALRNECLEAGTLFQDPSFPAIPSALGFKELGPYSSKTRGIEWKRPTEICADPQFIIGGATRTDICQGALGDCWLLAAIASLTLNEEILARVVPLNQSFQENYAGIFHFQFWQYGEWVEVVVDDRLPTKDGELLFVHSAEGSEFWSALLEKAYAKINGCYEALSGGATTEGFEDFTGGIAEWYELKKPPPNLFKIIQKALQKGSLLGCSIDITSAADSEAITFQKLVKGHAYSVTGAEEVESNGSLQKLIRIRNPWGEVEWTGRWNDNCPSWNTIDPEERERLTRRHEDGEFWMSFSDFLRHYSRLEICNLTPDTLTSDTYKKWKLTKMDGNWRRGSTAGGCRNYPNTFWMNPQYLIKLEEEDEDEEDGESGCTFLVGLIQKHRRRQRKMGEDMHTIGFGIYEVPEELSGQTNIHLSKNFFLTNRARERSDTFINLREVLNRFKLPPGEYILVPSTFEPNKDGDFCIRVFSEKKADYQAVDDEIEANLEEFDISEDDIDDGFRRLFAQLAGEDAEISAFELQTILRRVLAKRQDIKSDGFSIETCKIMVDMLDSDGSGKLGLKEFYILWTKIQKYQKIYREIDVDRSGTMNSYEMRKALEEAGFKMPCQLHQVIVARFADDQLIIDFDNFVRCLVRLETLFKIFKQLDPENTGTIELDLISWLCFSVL
UniProt Q5BKX5: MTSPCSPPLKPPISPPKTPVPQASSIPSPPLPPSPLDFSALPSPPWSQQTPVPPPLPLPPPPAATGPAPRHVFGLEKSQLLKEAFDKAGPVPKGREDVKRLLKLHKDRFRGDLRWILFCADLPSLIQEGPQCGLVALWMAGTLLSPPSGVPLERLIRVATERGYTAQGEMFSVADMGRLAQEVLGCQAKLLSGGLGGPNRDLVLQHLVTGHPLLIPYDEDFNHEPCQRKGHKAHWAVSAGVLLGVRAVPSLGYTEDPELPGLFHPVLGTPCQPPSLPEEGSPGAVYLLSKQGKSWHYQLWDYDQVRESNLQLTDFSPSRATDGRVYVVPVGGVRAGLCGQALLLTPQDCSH
UniProt Q8N6N3: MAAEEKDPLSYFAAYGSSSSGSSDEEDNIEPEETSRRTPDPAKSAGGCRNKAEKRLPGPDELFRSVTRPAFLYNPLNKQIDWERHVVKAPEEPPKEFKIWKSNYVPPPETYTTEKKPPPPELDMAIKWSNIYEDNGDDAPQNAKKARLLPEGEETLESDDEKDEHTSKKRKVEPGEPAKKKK
UniProt Q13555: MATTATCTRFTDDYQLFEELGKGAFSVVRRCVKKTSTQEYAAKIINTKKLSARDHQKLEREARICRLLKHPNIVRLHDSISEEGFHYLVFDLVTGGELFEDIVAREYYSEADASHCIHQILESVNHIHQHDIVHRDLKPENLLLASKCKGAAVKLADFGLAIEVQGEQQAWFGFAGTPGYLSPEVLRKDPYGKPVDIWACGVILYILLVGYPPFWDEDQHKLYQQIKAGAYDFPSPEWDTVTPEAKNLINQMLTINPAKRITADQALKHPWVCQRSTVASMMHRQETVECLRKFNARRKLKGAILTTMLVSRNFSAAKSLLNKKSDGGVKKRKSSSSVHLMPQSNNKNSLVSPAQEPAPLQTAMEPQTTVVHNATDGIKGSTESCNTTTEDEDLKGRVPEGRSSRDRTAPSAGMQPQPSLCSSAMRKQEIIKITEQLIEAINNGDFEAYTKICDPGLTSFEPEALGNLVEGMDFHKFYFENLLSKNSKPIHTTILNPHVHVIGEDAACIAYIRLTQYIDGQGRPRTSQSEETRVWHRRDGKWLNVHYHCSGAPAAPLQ
UniProt Q8NDD1: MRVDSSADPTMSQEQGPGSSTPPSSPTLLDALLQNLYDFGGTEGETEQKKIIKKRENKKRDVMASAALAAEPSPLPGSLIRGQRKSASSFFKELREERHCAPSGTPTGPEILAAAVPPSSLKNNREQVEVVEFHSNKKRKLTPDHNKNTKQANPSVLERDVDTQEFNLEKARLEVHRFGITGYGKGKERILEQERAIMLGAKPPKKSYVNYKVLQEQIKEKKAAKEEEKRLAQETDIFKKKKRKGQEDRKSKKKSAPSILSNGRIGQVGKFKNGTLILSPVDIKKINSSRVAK
UniProt Q8TCD1: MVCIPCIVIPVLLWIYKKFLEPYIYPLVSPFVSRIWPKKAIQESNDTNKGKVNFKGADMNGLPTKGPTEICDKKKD
UniProt P01024, whole entry, looked up: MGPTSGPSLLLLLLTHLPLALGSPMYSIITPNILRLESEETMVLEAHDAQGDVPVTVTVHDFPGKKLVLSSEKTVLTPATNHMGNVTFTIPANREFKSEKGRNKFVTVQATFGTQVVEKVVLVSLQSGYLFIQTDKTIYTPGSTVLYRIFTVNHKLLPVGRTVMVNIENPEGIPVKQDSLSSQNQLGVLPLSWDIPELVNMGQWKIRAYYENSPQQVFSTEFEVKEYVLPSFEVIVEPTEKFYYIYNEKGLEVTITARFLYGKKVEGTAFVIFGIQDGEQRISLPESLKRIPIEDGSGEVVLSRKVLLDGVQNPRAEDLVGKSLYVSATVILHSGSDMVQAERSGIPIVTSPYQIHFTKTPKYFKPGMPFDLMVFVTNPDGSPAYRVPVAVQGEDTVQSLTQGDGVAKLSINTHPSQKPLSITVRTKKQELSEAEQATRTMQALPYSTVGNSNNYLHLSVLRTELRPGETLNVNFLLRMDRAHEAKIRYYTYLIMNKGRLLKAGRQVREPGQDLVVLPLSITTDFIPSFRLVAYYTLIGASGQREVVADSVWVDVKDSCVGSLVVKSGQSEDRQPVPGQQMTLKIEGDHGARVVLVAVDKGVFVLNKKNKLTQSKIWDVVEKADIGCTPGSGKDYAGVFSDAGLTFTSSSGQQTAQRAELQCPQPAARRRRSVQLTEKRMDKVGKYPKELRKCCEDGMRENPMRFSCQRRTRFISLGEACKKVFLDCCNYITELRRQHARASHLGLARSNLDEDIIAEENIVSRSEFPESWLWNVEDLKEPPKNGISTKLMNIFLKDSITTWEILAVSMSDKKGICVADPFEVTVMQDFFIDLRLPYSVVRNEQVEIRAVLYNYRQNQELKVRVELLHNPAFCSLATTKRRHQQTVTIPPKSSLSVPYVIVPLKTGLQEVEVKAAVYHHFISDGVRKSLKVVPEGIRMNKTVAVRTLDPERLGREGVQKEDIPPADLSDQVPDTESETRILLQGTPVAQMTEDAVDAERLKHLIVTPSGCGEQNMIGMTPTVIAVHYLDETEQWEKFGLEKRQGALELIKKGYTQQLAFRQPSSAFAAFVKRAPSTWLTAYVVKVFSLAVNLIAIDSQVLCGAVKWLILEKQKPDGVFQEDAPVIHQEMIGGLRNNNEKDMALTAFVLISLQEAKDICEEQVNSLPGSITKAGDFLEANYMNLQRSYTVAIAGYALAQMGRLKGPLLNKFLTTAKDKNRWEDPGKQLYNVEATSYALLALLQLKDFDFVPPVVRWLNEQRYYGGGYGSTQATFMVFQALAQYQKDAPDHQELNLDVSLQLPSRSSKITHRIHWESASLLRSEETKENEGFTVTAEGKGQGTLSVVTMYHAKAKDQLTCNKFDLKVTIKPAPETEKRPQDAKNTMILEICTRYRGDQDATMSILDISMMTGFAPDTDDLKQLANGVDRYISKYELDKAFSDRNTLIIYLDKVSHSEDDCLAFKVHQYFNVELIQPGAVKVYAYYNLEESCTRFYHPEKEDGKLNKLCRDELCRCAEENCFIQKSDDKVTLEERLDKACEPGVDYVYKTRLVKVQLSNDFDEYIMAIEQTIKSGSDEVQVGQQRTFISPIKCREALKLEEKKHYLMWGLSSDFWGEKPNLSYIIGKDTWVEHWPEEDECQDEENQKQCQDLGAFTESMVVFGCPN
UniProt O43709: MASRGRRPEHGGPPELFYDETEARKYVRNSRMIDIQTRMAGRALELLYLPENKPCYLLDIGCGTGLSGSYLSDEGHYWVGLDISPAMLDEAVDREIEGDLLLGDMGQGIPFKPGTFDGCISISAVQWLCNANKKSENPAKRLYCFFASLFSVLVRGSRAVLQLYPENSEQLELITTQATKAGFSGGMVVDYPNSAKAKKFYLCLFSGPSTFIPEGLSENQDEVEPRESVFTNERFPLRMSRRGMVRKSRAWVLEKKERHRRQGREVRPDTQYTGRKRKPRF
UniProt Q13137: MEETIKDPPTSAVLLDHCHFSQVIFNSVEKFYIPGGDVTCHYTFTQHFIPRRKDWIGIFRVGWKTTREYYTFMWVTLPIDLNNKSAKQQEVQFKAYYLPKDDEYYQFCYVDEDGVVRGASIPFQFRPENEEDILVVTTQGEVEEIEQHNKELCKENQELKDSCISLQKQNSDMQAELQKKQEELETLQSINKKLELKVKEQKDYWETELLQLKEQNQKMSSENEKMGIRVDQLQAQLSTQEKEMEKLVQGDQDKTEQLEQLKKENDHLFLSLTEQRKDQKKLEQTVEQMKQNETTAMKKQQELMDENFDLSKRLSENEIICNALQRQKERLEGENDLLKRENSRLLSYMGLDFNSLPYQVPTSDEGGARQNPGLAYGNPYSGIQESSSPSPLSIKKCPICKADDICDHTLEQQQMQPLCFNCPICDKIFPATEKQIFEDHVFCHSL
UniProt Q9NZ63: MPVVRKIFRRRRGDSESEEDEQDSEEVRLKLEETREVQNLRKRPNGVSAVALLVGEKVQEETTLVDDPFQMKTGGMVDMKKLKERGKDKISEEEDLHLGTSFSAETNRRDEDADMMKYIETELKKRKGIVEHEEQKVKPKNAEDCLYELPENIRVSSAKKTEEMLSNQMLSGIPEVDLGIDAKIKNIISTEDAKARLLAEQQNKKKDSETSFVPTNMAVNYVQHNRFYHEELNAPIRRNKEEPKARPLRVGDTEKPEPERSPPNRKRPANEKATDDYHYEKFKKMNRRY
UniProt Q96EU7: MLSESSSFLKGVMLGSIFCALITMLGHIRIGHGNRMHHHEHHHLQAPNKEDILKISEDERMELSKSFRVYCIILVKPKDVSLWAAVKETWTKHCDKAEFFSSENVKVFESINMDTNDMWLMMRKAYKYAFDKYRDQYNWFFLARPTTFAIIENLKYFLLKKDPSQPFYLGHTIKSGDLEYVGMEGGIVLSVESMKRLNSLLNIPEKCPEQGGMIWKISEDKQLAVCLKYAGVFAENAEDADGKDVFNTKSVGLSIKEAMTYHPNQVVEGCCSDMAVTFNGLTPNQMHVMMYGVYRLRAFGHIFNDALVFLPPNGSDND
UniProt Q8WVQ1: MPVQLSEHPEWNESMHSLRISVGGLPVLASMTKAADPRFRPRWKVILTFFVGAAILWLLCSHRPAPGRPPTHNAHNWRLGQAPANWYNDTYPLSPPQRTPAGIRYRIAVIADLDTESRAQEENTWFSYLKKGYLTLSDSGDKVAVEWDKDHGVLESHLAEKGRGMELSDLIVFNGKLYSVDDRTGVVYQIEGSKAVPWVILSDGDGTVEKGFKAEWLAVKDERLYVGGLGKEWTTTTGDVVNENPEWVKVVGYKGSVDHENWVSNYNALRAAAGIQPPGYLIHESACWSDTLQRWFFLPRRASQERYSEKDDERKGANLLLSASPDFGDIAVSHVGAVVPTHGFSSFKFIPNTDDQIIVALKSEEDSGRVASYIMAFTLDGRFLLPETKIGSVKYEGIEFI
UniProt A6NDU8: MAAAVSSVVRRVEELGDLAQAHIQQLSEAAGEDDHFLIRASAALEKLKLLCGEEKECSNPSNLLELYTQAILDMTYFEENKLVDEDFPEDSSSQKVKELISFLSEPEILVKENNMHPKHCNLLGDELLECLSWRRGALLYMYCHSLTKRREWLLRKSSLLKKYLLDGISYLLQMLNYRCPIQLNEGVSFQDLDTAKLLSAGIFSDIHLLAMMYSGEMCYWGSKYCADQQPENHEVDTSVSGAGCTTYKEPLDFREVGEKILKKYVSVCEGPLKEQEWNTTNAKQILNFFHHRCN
UniProt P41223: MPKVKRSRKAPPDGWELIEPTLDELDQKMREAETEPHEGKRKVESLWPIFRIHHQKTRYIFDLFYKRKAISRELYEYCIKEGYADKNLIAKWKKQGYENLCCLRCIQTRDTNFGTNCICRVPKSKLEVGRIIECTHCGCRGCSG
UniProt Q8IXQ3: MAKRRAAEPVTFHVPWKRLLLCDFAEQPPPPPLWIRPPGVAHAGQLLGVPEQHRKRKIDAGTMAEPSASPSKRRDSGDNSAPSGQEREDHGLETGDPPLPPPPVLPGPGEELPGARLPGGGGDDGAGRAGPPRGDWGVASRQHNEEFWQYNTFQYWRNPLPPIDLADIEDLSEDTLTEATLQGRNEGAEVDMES
UniProt P49069: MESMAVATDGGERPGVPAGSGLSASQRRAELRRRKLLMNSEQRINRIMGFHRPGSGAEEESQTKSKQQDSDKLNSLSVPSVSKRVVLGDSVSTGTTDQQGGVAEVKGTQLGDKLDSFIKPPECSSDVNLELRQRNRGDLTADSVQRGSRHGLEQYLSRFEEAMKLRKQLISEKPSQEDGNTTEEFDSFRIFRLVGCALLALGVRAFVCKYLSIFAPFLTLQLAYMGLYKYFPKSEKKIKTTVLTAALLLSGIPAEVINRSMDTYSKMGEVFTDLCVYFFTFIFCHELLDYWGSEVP

Compound in another assay: O=C(CCCCCCC(=O)Nc1ccccc1)NO [vorinostat]
Summed up: as §1

Compound in a further assay: O=C(O)c1ccc2c(c1)nc(Nc1cccc(Cl)c1)c1ccncc12 [silmitasertib]
A digest of the protocol: as §1

Compound in assay [2]: O=C1NC(=O)C(c2cnc3ccccn23)=C1c1cn2c3c(cc(F)cc13)CN(C(=O)N1CCCCC1)CC2
Summed up: as §1

Compound in the next assay: c1cn2cc(-c3ccc4cn[nH]c4c3)nc(Nc3ccc(N4CCOCC4)cc3)c2n1 [entospletinib]
Summed up: as §1

The other results are listed elsewhere or left out.

On to CAPN2 (UniProt P17655), for which the log2 fold change was inactive: -0.019 in assay [1]; inactive: 0.074 with vorinostat; inactive: 0.001 with silmitasertib; inactive: -0.007 in assay [2]; inactive: 0.007 with entospletinib.
On the same counts, the results for C19orf54 (UniProt Q5BKX5) are inactive: -0.052, active: -0.381, inactive: -0.004, inactive: -0.006 and inactive: 0.009.
On the same counts, the results for C1orf52 (UniProt Q8N6N3) are inactive: 0.035, inactive: 0.093, inactive: -0.117, inactive: -0.002 and inactive: 0.035.
On the same counts, the results for CAMK2G isoform 8 (UniProt Q13555) are inactive: -0.044, inactive: -0.208, inactive: 0.087, inactive: 0.084 and inactive: 0.004.
C1orf131 isoform 5 (UniProt Q8NDD1): the log2 fold change in assay [1] is inactive: 0.059; with vorinostat it was active: -0.445; with silmitasertib it was inactive: -0.025; in assay [2], inactive: 0.039; in the assay with entospletinib, inactive: -0.013.
Consider C18orf32 (UniProt Q8TCD1), for which the log2 fold change is inactive: 0.004 in assay [1]; active: -0.486 with vorinostat; inactive: -0.021 in the assay with silmitasertib; inactive: 0.017 in assay [2]; inactive: -0.071 in the assay with entospletinib.
On the same counts, the results for CALR (UniProt P27797) are inactive: 0.002, inactive: 0.108, inactive: 0.008, inactive: -0.01 and inactive: -0.02.
The like results for CAPG (UniProt P40121) were, in that order, inactive: 0.021, inactive: 0.08, inactive: -0.026, inactive: -0.021 and inactive: 0.01.
The like results for C3 (UniProt P01024) were, in that order, inactive: 0.024, inactive: -0.098, inactive: 0.008, inactive: 0.062 and inactive: -0.036.
C6orf136 isoform 4 (UniProt Q5SQH8): the log2 fold change is inactive: -0.121 in assay [1], inactive: -0.095 with vorinostat, inactive: 0.037 with silmitasertib and inactive: -0.017 with entospletinib.
On to C11orf98 (UniProt E9PRG8), for which the log2 fold change was inactive: 0.015 in assay [1]; inactive: 0.167 with vorinostat; inactive: -0.024 with silmitasertib; inactive: 0.033 in assay [2]; inactive: -0.034 with entospletinib.
The like results for BUD23 isoform 3 (UniProt O43709) were, in that order, inactive: 0.007, inactive: 0.014, inactive: -0.07, inactive: -0.021 and inactive: 0.055.
The like results for CAD (UniProt P27708) were, in that order, inactive: 0.012, inactive: -0.067, inactive: 0.026, inactive: 0.008 and inactive: 0.
The like results for CALCOCO2 isoform 4 (UniProt Q13137) were, in that order, inactive: 0.019, inactive: -0.058, inactive: 0.014, inactive: 0.013 and inactive: -0.023.
CAMSAP2 (UniProt Q08AD1): the log2 fold change in assay [1] was inactive: 0.055; in the assay with vorinostat, inactive: -0.172; with silmitasertib, inactive: 0.064; in assay [2], inactive: 0.035; with entospletinib it was inactive: 0.052.
On the same counts, the results for CANX isoform 2 (UniProt P27824) are inactive: 0.018, inactive: 0.131, inactive: -0.004, inactive: -0.015 and inactive: -0.004.
The like results for C9orf78 (UniProt Q9NZ63) were, in that order, inactive: -0.011, inactive: 0.109, inactive: -0.041, inactive: -0.046 and inactive: 0.007.
On the same counts, the results for C1GALT1C1 (UniProt Q96EU7) are inactive: -0.028, inactive: 0.134, inactive: 0.003, inactive: -0.011 and inactive: 0.025.
CANT1 (UniProt Q8WVQ1): the log2 fold change in assay [1] is inactive: -0.046; with vorinostat, inactive: 0.116; in the assay with silmitasertib, inactive: -0.031; in assay [2], inactive: -0.062; with entospletinib it was inactive: 0.011.
On the same counts, the results for C8orf76 (UniProt Q96K31) are inactive: 0.026, inactive: -0.035, inactive: 0.044, inactive: -0.044 and inactive: -0.051.
On to C5orf51 (UniProt A6NDU8), for which the log2 fold change was inactive: 0.042 in assay [1]; active: -0.501 in the assay with vorinostat; inactive: 0.036 with silmitasertib; inactive: -0.003 in assay [2]; inactive: 0.015 in the assay with entospletinib.
Turning to BUD31 (UniProt P41223), the log2 fold change in assay [1] was inactive: -0.009; with vorinostat, inactive: 0.171; with silmitasertib, inactive: -0.026; in assay [2], inactive: -0.018; with entospletinib, inactive: 0.021.
For the target C9orf40 (UniProt Q8IXQ3), the log2 fold change in assay [1] was inactive: -0.02; with vorinostat, inactive: 0.009; with silmitasertib, inactive: 0.027; in assay [2], inactive: -0.049; with entospletinib it was inactive: 0.
For CAMLG (UniProt P49069), the log2 fold change in assay [1] is inactive: -0.009; in the assay with vorinostat, inactive: -0.15; with silmitasertib it was inactive: -0.027; in assay [2], inactive: 0.006; with entospletinib, inactive: 0.001.
